Measurements reported in patent US20080176225A1, “MEMBRANE BOUND REPORTER GENE SYSTEM” (priority 2007, published 2008).

B1: hβG-e-B7: human β-glucuronidase fused to Ig-like C2-type and Ig-hinge-like domains, TM and cytoplasmic tail of murine B7-1 (protein)
chain: LQGGMLYPQESPSRECKELDGLWSFRADFSDNRRRGFEEQWYRRPLWESGPTVDMPVPSSFNDISQDWRLRHFVGWVWYEREVILPERWTQDLRTRVVLRIGSAHSYAIVWVNGVDTLEHEGGYLPFEADISNLVQVGPLPSRLRITIAINNTLTPTTLPPGTIQYLTDTSKYPKGYFVQNTYFDFFNYAGLQRSVLLYTTPTTYIDDITVTTSVEQDSGLVNYQISVKGSNLFKLEVRLLDAENKVVANGTGTQGQLKVPGVSLWWPYLMHERPAYLYSLEVQLTAQTSLGPVSDFYTLPVGIRTVAVTKSQFLINGKPFYFHGVNKHEDADIRGKGFDWPLLVKDFNLLRWLGANAFRTSHYPYAEEVMQMCDRYGIVVIDECPGVGLALPQFFNNVSLHHHMQVMEEVVRRDKNHPAVVMWSVANEPASHLESAGYYLKMVIAHTKSLDPSRPVTFVSNSNYAADKGAPYVDVICLNSYYSWYHDYGHLELIQLQLATQFENWYKKYQKPIIQSEYGAETIAGFHQDPPLMFTEEYQKSLLEQYHLGLDQKRRKYVVGELIWNFADFMTEQSPTRVLGNKKGIFTRQRQPKSAAFLLRERYWKIANETRYPHSVAKSQCLENSPFTVDEQKLISEEDLADFSTPNITESGNPSADTKRITCFASGGFPKPRFSWLENGRELPGINTTISQDPESELYTISSQLDFNTTRNHTIKCLIKYGDAHVSEDFTWEKPPEDPPDSKNTLVLFGAGFGAVITVVVIVVIIKCFCKHRSCFRRNEASRETNNSLTFGPEEALAEQTVFL
B2: mβG-e-B7: murine β-glucuronidase fused to immunoglobulin-like C2-type extracellular region, transmembrane domain and cytoplasmic tail of murine B7-1 antigen (protein)
chain: LKGGMLFPKESPSRELKALDGLWHFRADLSNNRLQGFEQQWYRQPLRESGPVLDMPVPSSFNDITQEAALRDFIGWVWYEREAILPRRWTQDTDMRVVLRINSAHYYAVVWVNGIHVVEHEGGHLPFEADISKLVQSGPLTTCRITIAINNTLTPHTLPPGTIVYKTDTSMYPKGYFVQDTSFDFFNYAGLHRSVVLYTTPTTYIDDITVITNVEQDIGLVTYWISVQGSEHFQLEVQLLDEDGKVVAHGTGNQGQLQVPSANLWWPYLMHEHPAYMYSLEVKVTTTESVTDYYTLPVGIRTVAVTKSKFLINGKPFYFQGVNKHEDSDIRGKGFDWPLLVKDFNLLRWLGANSFRTSHYPYSEEVLQLCDRYGIVVIDECPGVGIVLPQSFGNESLRHHLEVMEELVRRDKNHPAVVMWSVANEPSSALKPAAYYFKTLITHTKALDLTRPVTFVSNAKYDADLGAPYVDVICVNSYFSWYHDYGHLEVIQPQLNSQFENWYKTHQKPIIQSEYGADAIPGIHEDPPRMFSEEYQKAVLENYHSVLDQKRKEYVVGELIWNFADFMTNQSPLRVIGNKKGIFTRQRQPKTSAFILRERYWRIANETGGHGSGPRTQCFGSRPFTFVDEQKLISEEDLADFSTPNITESGNPSADTKRITCFASGGFPKPRFSWLENGRELPGINTTISQDPESELYTISSQLDFNTTRNHTIKCLIKYGDAHVSEDFTWEKPPEDPPDSKNTLVLFGAGFGAVITVVVIVVIIKCFCKHRSCFRRNEASRETNNSLTFGPEEALAEQTVFL

What was measured:
[1] = system: EJ human bladder cancer cells; assay: Immunoblot of β-glucuronidase expression in stable EJ transfectants; format: cell-based; conditions: whole cell lysates of stable EJ transfectants; higher
3T3 fibroblasts = assay: Surface immunofluorescence (flow cytometer) of transiently transfected 3T3 fibroblasts; format: cell-based, murine

Row | Molecule | expression level compared to eβG-e-B7 (HA band normalized to β-actin) [1] | surface expression of human β-glucuronidase constructs (3T3 fibroblasts; transiently transfected 3T3 cells) | surface level of membrane bound mouse β-glucuronidase compared to mβG-BGP-B7 (3T3 fibroblasts; transiently transfected 3T3, higher)
1 | B1 | about 2.5 fold | highly expressed | 
2 | B2 | about 2.5 fold |  | about two
